This assay deals with T1, E1 domain of human APLP1 (human) (UniProt P51693).
T1 sequence (chain, biotin (EZ-Link NHS-PEG4-Biotin, 1,1 molar ratio) where immobilised in BLI): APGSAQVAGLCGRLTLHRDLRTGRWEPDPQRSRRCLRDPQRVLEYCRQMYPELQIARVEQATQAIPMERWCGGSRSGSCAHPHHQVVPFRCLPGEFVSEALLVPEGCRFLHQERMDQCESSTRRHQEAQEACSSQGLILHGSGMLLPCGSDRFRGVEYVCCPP
Briefly: BLI; biotinylated E1 domain ([…] nM) immobilised on streptavidin tips, CNTN FN1–FN3 in solution; room temperature; 150 mM NaCl, 10 mM Na-Hepes pH 7.5, 1 mg/ml BSA, 0.02% Tween-20; BLItz or Octet K2; KD from the signal at equilibrium; both purified.

The chains behind the UniProt entries cited, without tags or fusion partners. Where a name states a change or a piece, a line headed by the entry shows the natural chain unless it says otherwise.
UniProt Q9P232: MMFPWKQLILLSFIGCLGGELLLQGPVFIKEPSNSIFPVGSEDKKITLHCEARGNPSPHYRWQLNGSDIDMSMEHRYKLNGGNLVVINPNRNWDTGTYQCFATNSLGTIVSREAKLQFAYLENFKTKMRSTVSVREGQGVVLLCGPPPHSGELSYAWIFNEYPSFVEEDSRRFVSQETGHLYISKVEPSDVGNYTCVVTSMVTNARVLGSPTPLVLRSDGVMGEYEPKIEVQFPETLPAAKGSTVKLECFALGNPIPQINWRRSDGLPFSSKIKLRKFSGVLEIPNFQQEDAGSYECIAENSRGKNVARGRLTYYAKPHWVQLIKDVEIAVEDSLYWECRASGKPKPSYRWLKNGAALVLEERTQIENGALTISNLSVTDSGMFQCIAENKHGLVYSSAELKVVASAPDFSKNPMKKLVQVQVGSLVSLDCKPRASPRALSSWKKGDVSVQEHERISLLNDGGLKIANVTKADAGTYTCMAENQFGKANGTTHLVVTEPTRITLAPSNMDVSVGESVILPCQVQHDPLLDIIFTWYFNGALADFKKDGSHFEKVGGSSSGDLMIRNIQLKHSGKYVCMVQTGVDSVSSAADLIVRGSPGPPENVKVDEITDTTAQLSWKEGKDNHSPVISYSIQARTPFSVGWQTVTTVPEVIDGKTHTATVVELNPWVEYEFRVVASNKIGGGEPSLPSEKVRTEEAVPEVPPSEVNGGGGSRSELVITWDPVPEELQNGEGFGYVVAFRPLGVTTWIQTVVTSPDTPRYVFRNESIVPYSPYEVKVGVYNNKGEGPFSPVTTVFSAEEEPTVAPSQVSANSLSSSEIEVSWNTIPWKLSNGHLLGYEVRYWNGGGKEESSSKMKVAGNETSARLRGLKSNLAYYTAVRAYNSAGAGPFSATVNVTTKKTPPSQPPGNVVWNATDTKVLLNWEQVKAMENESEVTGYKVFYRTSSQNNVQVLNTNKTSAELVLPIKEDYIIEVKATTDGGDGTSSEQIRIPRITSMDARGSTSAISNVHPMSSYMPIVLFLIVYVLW
UniProt Q8IWV2: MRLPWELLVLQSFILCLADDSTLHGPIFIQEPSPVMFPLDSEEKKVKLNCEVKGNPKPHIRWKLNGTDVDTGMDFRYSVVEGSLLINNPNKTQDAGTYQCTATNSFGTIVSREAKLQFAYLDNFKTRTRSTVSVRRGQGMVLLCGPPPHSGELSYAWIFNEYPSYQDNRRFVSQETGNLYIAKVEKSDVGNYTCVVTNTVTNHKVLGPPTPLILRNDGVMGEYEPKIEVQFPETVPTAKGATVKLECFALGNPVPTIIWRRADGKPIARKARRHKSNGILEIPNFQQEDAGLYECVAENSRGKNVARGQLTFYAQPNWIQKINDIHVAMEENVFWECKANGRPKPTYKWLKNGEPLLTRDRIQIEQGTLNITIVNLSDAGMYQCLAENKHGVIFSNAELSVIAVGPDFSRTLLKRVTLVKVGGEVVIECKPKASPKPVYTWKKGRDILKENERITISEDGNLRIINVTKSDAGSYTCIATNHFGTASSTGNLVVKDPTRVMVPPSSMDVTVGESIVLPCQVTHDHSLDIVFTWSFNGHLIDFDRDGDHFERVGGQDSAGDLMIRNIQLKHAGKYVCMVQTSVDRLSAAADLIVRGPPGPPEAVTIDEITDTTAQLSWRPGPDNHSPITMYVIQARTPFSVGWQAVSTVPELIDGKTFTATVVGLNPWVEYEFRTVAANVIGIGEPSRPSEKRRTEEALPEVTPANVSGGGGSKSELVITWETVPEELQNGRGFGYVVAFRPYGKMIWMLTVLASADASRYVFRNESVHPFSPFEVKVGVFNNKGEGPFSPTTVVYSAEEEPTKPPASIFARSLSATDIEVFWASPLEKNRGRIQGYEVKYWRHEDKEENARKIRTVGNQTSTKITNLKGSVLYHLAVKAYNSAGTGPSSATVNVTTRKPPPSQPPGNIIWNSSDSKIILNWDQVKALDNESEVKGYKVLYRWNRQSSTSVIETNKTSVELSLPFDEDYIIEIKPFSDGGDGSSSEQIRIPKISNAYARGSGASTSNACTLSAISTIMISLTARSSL

These are yes or no findings as the source states them, for the method shown. A result given as binding can be weak or reduced; the word gives no strength.

For the substance “FN1–FN3 region of CNTN3 titrated against human APLP1(E1) (from UniProt Q9P232) (domain or fragment)”, the binding result is reported as “binds”.

As to “FN1–FN3 region of human CNTN4 (from UniProt Q8IWV2) (domain or fragment)”, the binding entry is “binds”.

Source of the values: publication PMC8808184.
